According to patent US12419871B2, “Biomolecules involved in Alzheimer's disease” (ELECTROPHORETICS LIMITED, priority 2015, dated 2025):

B1: Q15714 (protein, UniProt Q15714 1-1073, looked up)
chain: MHQPPESTAAAAAAADISARKMAHPAMFPRRGSGSGSASALNAAGTGVGSNATSSEDFPPPSLLQPPPPAASSTSGPQPPPPQSLNLLSQAQLQAQPLAPGGTQMKKKSGFQITSVTPAQISASISSNNSIAEDTESYDDLDESHTEDLSSSEILDVSLSRATDLGEPERSSSEETLNNFQEAETPGAVSPNQPHLPQPHLPHLPQQNVVINGNAHPHHLHHHHQIHHGHHLQHGHHHPSHVAVASASITGGPPSSPVSRKLSTTGSSDSITPVAPTSAVSSSGSPASVMTNMRAPSTTGGIGINSVTGTSTVNNVNITAVGSFNPNVTSSMLGNVNISTSNIPSAAGVSVGPGVTSGVNVNILSGMGNGTISSSAAVSSVPNAAAGMTGGSVSSQQQQPTVNTSRFRVVKLDSSSEPFKKGRWTCTEFYEKENAVPATEGVLINKVVETVKQNPIEVTSERESTSGSSVSSSVSTLSHYTESVGSGEMGAPTVVVQQQQQQQQQQQQQPALQGVTLQQMDFGSTGPQSIPAVSIPQSISQSQISQVQLQSQELSYQQKQGLQPVPLQATMSAATGIQPSPVNVVGVTSALGQQPSISSLAQPQLPYSQAAPPVQTPLPGAPPPQQLQYGQQQPMVSTQMAPGHVKSVTQNPASEYVQQQPILQTAMSSGQPSSAGVGAGTTVIPVAQPQGIQLPVQPTAVPAQPAGASVQPVGQAPAAVSAVPTGSQIANIGQQANIPTAVQQPSTQVPPSVIQQGAPPSSQVVPPAQTGIIHQGVQTSAPSLPQQLVIASQSSLLTVPPQPQGVEPVAQGIVSQQLPAVSSLPSASSISVTSQVSSTGPSGMPSAPTNLVPPQNIAQTPATQNGNLVQSVSQPPLIATNTNLPLAQQIPLSSTQFSAQSLAQAIGSQIEDARRAAEPSLVGLPQTISGDSGGMSAVSDGSSSSLAASASLFPLKVLPLTTPLVDGEDESSSGASVVAIDNKIEQAMDLVKSHLMYAVREEVEVLKEQIKELIEKNSQLEQENNLLKTLASPEQLAQFQAQLQTGSPPATTQPQGTTQPPAQPASQGSGPTA
modifications: full-length
B2: Q14376 (protein, UniProt Q14376 1-348, looked up)
chain: MAEKVLVTGGAGYIGSHTVLELLEAGYLPVVIDNFHNAFRGGGSLPESLRRVQELTGRSVEFEEMDILDQGALQRLFKKYSFMAVIHFAGLKAVGESVQKPLDYYRVNLTGTIQLLEIMKAHGVKNLVFSSSATVYGNPQYLPLDEAHPTGGCTNPYGKSKFFIEEMIRDLCQADKTWNAVLLRYFNPTGAHASGCIGEDPQGIPNNLMPYVSQVAIGRREALNVFGNDYDTEDGTGVRDYIHVVDLAKGHIAALRKLKEQCGCRIYNLGTGTGYSVLQMVQAMEKASGKKIPYKVVARREGDVAACYANPSLAQEELGWTAALGLDRMCEDLWRWQKQNPSGFGTQA
modifications: full-length
B3: Q9H3H3 (protein, UniProt Q9H3H3 1-292, looked up)
chain: MAAAAAAAVAGVGRGGGGAEPRQERSRARGWAGVERSEGRRMEPGEELEEEGSPGGREDGFTAEHLAAEAMAADMDPWLVFDARTTPATELDAWLAKYPPSQVTRYGDPGSPNSEPVGWIAVYGQGYSPNSGDVQGLQAAWEALQTSGRPITPGTLRQLAITHHVLSGKWLMHLAPGFKLDHAWAGIARAVVEGQLQVAKVSPRAKEGGRQVICVYTDDFTDRLGVLEADSAIRAAGIKCLLTYKPDVYTYLGIYRANRWHLCPTLYESRFQLGGSARGSRVLDRANNVELT
modifications: full-length
B4: P49748 (protein, UniProt P49748 1-655, looked up)
chain: MQAARMAASLGRQLLRLGGGSSRLTALLGQPRPGPARRPYAGGAAQLALDKSDSHPSDALTRKKPAKAESKSFAVGMFKGQLTTDQVFPYPSVLNEEQTQFLKELVEPVSRFFEEVNDPAKNDALEMVEETTWQGLKELGAFGLQVPSELGGVGLCNTQYARLVEIVGMHDLGVGITLGAHQSIGFKGILLFGTKAQKEKYLPKLASGETVAAFCLTEPSSGSDAASIRTSAVPSPCGKYYTLNGSKLWISNGGLADIFTVFAKTPVTDPATGAVKEKITAFVVERGFGGITHGPPEKKMGIKASNTAEVFFDGVRVPSENVLGEVGSGFKVAMHILNNGRFGMAAALAGTMRGIIAKAVDHATNRTQFGEKIHNFGLIQEKLARMVMLQYVTESMAYMVSANMDQGATDFQIEAAISKIFGSEAAWKVTDECIQIMGGMGFMKEPGVERVLRDLRIFRIFEGTNDILRLFVALQGCMDKGKELSGLGSALKNPFGNAGLLLGEAGKQLRRRAGLGSGLSLSGLVHPELSRSGELAVRALEQFATVVEAKLIKHKKGIVNEQFLLQRLADGAIDLYAMVVVLSRASRSLSEGHPTAQHEKMLCDTWCIEAAARIREGMAALQSDPWQQELYRNFKSISKALVERGGVVTSNPLGF
modifications: full-length
B5: Q8TF74 (protein, UniProt Q8TF74 1-440, looked up)
chain: MPIPPPPPPPPGPPPPPTFHQANTEQPKLSRDEQRGRGALLQDICKGTKLKKVTNINDRSAPILEKPKGSSGGYGSGGAALQPKGGLFQGGVLKLRPVGAKDGSENLAGKPALQIPSSRAAAPRPPVSAASGRPQDDTDSSRASLPELPRMQRPSLPDLSRPNTTSSTGMKHSSSAPPPPPPGRRANAPPTPLPMHSSKAPAYNREKPLPPTPGQRLHPGREGPPAPPPVKPPPSPVNIRTGPSGQSLAPPPPPYRQPPGVPNGPSSPTNESAPELPQRHNSLHRKTPGPVRGLAPPPPTSASPSLLSNRPPPPARDPPSRGAAPPPPPPVIRNGARDAPPPPPPYRMHGSEPPSRGKPPPPPSRTPAGPPPPPPPPLRNGHRDSITTVRSFLDDFESKYSFHPVEDFPAPEEYKHFQRIYPSKTNRAARGAPPLPPILR
modifications: full-length
B6: Q9UPY6 (protein, UniProt Q9UPY6 1-502, looked up)
chain: MPLVKRNIEPRHLCRGALPEGITSELECVTNSTLAAIIRQLSSLSKHAEDIFGELFNEANNFYIRANSLQDRIDRLAVKVTQLDSTVEEVSLQDINMKKAFKSSTVQDQQVVSKNSIPNPVADIYNQSDKPPPLNILTPYRDDKKDGLKFYTDPSYFFDLWKEKMLQDTEDKRKEKRRQKEQKRIDGTTREVKKVRKARNRRQEWNMMAYDKELRPDNRLSQSVYHGASSEGSLSPDTRSHASDVTDYSYPATPNHSLHPQPVTPSYAAGDVPPHGPASQAAEHEYRPPSASARHMALNRPQQPPPPPPPQAPEGSQASAPMAPADYGMLPAQIIEYYNPSGPPPPPPPPVIPSAQTAFVSPLQMPMQPPFPASASSTHAAPPHPPSTGLLVTAPPPPGPPPPPPGPPGPGSSLSSSPMHGPPVAEAKRQEPAQPPISDARSDLLAAIRMGIQLKKVQEQREQEAKREPVGNDVATILSRRIAVEYSDSDDDSEFDENDWSD
modifications: full-length
B7: Q9ULF5 (protein, UniProt Q9ULF5 1-831, looked up)
chain: MKVHMHTKFCLICLLTFIFHHCNHCHEEHDHGPEALHRQHRGMTELEPSKFSKQAAENEKKYYIEKLFERYGENGRLSFFGLEKLLTNLGLGERKVVEINHEDLGHDHVSHLDILAVQEGKHFHSHNHQHSHNHLNSENQTVTSVSTKRNHKCDPEKETVEVSVKSDDKHMHDHNHRLRHHHRLHHHLDHNNTHHFHNDSITPSERGEPSNEPSTETNKTQEQSDVKLPKGKRKKKGRKSNENSEVITPGFPPNHDQGEQYEHNRVHKPDRVHNPGHSHVHLPERNGHDPGRGHQDLDPDNEGELRHTRKREAPHVKNNAIISLRKDLNEDDHHHECLNVTQLLKYYGHGANSPISTDLFTYLCPALLYQIDSRLCIEHFDKLLVEDINKDKNLVPEDEANIGASAWICGIISITVISLLSLLGVILVPIINQGCFKFLLTFLVALAVGTMSGDALLHLLPHSQGGHDHSHQHAHGHGHSHGHESNKFLEEYDAVLKGLVALGGIYLLFIIEHCIRMFKHYKQQRGKQKWFMKQNTEESTIGRKLSDHKLNNTPDSDWLQLKPLAGTDDSVVSEDRLNETELTDLEGQQESPPKNYLCIEEEKIIDHSHSDGLHTIHEHDLHAAAHNHHGENKTVLRKHNHQWHHKHSHHSHGPCHSGSDLKETGIANIAWMVIMGDGIHNFSDGLAIGAAFSAGLTGGISTSIAVFCHELPHELGDFAVLLKAGMTVKQAIVYNLLSAMMAYIGMLIGTAVGQYANNITLWIFAVTAGMFLYVALVDMLPEMLHGDGDNEEHGFCPVGQFILQNLGLLFGFAIMLVIALYEDKIVFDIQF
modifications: full-length
B8: P17174 (protein, UniProt P17174 1-413, looked up)
chain: MAPPSVFAEVPQAQPVLVFKLTADFREDPDPRKVNLGVGAYRTDDCHPWVLPVVKKVEQKIANDNSLNHEYLPILGLAEFRSCASRLALGDDSPALKEKRVGGVQSLGGTGALRIGADFLARWYNGTNNKNTPVYVSSPTWENHNAVFSAAGFKDIRSYRYWDAEKRGLDLQGFLNDLENAPEFSIVVLHACAHNPTGIDPTPEQWKQIASVMKHRFLFPFFDSAYQGFASGNLERDAWAIRYFVSEGFEFFCAQSFSKNFGLYNERVGNLTVVGKEPESILQVLSQMEKIVRITWSNPPAQGARIVASTLSNPELFEEWTGNVKTMADRILTMRSELRARLEALKTPGTWNHITDQIGMFSFTGLNPKQVEYLVNEKHIYLLPSGRINVSGLTTKNLDYVATSIHEAVTKIQ
modifications: full-length
B9: P17858 (protein, UniProt P17858 1-780, looked up)
chain: MAAVDLEKLRASGAGKAIGVLTSGGDAQGMNAAVRAVTRMGIYVGAKVFLIYEGYEGLVEGGENIKQANWLSVSNIIQLGGTIIGSARCKAFTTREGRRAAAYNLVQHGITNLCVIGGDGSLTGANIFRSEWGSLLEELVAEGKISETTARTYSHLNIAGLVGSIDNDFCGTDMTIGTDSALHRIMEVIDAITTTAQSHQRTFVLEVMGRHCGYLALVSALASGADWLFIPEAPPEDGWENFMCERLGETRSRGSRLNIIIIAEGAIDRNGKPISSSYVKDLVVQRLGFDTRVTVLGHVQRGGTPSAFDRILSSKMGMEAVMALLEATPDTPACVVTLSGNQSVRLPLMECVQMTKEVQKAMDDKRFDEATQLRGGSFENNWNIYKLLAHQKPPKEKSNFSLAILNVGAPAAGMNAAVRSAVRTGISHGHTVYVVHDGFEGLAKGQVQEVGWHDVAGWLGRGGSMLGTKRTLPKGQLESIVENIRIYGIHALLVVGGFEAYEGVLQLVEARGRYEELCIVMCVIPATISNNVPGTDFSLGSDTAVNAAMESCDRIKQSASGTKRRVFIVETMGGYCGYLATVTGIAVGADAAYVFEDPFNIHDLKVNVEHMTEKMKTDIQRGLVLRNEKCHDYYTTEFLYNLYSSEGKGVFDCRTNVLGHLQQGGAPTPFDRNYGTKLGVKAMLWLSEKLREVYRKGRVFANAPDSACVIGLKKKAVAFSPVTELKKDTDFEHRMPREQWWLSLRLMLKMLAQYRISMAAYVSGELEHVTRRTLSMDKGF
modifications: full-length
B10: Q96BJ3 (protein, UniProt Q96BJ3 1-306, looked up)
chain: MSEVTRSLLQRWGASFRRGADFDSWGQLVEAIDEYQILARHLQKEAQAQHNNSEFTEEQKKTIGKIATCLELRSAALQSTQSQEEFKLEDLKKLEPILKNILTYNKEFPFDVQPVPLRRILAPGEEENLEFEEDEEEGGAGAGSPDSFPARVPGTLLPRLPSEPGMTLLTIRIEKIGLKDAGQCIDPYITVSVKDLNGIDLTPVQDTPVASRKEDTYVHFNVDIELQKHVEKLTKGAAIFFEFKHYKPKKRFTSTKCFAFMEMDEIKPGPIVIELYKKPTDFKRKKLQLLTKKPLYLHLHQTLHKE
modifications: full-length

Assay: TMTcalibrator quantification of regulated proteins in AD CSF versus control
Design: species or system human
Details: CSF of AD patient versus control; non-modified peptides of each protein summed for three control and three AD cases

B1 and B2 are within 0.2 log units of each other in “Log2 AD/Control” value: 0.89 for the first, 0.82 for the second.

B3 and B4 are within 0.2 log units of each other in “Log2 AD/Control” value: 0.83 for the first, 0.91 for the second.

Compared with B5, B6 is lower in “Log2 AD/Control” value: 1.71 for the first, 0.77 for the second.

Compared with B7, B8 is higher in “Log2 AD/Control” value: 0.76 for the first, 0.99 for the second.

First: B9
Second: B10
The “Log2 AD/Control” value of the first is lower: 0.68 for the first, 0.98 for the second.
